# Assay results taken from the supplement of paper PMC10032668.
# Amino acid sequences for entries named in this document (tags omitted).
# DNAJC13, O75165, UniProt O75165, whole entry: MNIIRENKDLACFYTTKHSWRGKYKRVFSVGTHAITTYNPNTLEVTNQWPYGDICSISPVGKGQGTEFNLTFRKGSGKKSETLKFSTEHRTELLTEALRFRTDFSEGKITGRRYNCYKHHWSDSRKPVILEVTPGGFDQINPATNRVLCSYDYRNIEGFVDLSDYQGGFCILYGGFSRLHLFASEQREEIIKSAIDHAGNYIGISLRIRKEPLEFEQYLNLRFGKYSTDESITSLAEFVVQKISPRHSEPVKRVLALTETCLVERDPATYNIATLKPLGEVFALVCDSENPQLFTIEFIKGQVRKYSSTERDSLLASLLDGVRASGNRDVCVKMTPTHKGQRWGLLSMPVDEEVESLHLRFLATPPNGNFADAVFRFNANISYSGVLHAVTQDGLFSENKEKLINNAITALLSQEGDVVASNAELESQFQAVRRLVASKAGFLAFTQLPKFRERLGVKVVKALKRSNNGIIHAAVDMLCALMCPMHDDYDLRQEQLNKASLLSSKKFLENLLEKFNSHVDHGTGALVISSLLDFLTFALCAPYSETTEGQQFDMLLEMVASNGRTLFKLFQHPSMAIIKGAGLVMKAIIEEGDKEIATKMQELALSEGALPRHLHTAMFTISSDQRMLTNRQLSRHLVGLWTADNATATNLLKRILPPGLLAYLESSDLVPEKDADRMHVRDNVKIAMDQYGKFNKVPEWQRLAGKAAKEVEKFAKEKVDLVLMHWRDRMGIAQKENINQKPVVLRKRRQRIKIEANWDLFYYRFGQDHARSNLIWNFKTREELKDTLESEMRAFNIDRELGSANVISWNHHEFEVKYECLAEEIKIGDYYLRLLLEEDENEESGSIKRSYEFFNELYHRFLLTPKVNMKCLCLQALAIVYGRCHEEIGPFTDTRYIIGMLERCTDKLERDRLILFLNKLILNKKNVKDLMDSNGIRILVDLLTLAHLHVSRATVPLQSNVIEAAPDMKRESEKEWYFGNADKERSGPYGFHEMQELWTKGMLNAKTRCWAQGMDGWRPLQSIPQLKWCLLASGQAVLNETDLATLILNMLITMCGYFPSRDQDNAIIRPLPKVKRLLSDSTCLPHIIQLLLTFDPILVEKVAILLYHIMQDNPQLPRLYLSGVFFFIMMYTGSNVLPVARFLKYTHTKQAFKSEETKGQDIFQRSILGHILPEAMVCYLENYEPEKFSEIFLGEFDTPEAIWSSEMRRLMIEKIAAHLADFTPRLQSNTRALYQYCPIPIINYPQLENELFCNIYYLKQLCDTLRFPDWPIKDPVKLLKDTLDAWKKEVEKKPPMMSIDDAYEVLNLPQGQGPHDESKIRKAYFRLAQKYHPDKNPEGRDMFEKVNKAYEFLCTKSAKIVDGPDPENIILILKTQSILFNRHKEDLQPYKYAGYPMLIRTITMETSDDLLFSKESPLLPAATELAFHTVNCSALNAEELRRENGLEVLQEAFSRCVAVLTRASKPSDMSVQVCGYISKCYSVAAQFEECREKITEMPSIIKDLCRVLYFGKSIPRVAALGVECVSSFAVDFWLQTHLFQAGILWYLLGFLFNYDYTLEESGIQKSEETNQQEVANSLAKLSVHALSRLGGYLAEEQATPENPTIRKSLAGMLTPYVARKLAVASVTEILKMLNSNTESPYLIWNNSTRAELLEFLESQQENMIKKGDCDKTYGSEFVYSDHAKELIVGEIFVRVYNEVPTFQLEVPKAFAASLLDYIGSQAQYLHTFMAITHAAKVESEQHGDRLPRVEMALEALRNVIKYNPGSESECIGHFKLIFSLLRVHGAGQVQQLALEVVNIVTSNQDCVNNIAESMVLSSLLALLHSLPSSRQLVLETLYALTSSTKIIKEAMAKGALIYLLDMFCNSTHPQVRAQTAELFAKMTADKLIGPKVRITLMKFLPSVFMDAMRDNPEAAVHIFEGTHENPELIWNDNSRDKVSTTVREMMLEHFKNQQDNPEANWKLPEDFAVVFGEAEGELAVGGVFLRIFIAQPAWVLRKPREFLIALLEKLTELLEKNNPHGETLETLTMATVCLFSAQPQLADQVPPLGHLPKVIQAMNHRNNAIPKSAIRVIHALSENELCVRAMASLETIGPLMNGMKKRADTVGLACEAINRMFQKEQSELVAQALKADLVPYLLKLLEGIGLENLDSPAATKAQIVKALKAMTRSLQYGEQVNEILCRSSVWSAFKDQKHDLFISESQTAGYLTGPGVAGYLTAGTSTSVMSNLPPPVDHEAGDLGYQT
# GTF2F2, P13984, UniProt P13984, whole entry: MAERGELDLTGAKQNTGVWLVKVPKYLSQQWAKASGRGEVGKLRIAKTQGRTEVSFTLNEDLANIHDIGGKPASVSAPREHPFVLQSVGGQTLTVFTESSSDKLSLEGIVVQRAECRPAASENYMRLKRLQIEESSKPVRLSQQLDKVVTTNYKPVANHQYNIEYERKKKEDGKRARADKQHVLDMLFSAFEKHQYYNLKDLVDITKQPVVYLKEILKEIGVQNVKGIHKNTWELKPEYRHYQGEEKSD
# HIST1H1E, P10412, UniProt P10412, whole entry: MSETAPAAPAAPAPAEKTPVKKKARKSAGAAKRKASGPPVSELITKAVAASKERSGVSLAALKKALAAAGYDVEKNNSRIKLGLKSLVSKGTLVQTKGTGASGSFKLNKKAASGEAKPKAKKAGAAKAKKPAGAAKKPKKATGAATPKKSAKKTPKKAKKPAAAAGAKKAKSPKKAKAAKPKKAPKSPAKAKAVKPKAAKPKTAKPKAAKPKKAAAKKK
# RAB7A, P51149, UniProt P51149, whole entry: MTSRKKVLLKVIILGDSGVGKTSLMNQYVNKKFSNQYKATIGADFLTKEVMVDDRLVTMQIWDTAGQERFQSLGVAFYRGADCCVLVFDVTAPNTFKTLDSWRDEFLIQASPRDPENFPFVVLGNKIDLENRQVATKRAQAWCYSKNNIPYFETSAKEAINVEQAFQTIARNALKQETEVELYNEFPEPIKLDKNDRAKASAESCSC
# RGPD5, Q99666, UniProt Q99666, whole entry: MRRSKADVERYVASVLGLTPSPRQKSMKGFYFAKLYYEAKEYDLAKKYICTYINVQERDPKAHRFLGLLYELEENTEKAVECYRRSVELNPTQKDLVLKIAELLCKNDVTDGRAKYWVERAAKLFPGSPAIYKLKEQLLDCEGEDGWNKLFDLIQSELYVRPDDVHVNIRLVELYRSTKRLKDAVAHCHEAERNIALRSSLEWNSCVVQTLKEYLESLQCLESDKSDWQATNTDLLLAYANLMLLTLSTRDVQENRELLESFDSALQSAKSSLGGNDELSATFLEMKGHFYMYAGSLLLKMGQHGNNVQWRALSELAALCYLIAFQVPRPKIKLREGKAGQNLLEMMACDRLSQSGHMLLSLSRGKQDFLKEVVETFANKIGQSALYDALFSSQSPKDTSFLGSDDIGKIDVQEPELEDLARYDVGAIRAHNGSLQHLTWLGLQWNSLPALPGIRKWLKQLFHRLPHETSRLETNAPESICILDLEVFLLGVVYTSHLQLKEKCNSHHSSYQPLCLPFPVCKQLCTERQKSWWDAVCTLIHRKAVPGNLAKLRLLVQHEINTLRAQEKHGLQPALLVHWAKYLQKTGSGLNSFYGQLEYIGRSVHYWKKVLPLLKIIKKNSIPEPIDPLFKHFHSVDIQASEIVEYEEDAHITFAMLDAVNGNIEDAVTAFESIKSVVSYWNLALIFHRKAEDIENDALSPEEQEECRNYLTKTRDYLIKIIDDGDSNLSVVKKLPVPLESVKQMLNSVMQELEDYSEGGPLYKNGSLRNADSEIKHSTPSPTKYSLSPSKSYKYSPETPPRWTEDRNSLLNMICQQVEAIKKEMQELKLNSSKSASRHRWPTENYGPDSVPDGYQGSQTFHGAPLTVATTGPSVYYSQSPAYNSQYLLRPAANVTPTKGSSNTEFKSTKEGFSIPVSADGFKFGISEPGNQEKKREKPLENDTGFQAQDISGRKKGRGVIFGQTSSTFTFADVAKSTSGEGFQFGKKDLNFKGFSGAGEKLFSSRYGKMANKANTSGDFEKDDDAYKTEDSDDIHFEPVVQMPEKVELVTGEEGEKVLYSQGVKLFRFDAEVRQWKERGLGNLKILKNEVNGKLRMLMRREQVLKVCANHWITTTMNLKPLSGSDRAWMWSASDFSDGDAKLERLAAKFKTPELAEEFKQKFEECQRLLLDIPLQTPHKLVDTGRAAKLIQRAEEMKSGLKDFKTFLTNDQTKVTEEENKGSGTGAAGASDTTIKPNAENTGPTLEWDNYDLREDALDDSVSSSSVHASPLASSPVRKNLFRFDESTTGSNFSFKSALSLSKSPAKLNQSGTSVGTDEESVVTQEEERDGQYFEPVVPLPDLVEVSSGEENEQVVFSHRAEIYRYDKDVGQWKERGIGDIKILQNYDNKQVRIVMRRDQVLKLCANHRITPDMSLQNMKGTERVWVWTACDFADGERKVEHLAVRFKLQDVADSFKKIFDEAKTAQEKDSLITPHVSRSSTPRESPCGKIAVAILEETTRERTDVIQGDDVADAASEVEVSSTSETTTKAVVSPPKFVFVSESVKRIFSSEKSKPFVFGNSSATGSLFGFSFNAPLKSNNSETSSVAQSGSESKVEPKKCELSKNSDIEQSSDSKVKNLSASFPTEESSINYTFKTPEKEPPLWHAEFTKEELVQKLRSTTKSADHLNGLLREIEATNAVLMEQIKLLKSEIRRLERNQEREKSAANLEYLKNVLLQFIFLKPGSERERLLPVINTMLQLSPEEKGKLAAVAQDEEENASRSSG
# ANAPC7, Q9UJX3, UniProt Q9UJX3, whole entry: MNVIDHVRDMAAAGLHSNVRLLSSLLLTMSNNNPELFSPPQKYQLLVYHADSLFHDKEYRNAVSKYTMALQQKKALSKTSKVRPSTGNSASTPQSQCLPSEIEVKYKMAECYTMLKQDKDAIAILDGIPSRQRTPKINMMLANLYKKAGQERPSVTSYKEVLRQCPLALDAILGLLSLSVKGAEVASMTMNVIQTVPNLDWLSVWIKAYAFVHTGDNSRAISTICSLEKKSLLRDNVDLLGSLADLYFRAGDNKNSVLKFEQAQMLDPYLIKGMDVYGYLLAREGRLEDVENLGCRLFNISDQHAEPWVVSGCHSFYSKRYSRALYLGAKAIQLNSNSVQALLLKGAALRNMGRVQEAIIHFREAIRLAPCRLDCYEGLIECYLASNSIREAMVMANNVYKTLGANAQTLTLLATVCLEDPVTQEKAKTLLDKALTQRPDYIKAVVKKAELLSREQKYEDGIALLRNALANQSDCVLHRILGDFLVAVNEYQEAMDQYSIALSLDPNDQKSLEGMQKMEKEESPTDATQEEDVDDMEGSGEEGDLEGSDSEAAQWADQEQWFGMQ
# DPF2, Q92785, UniProt Q92785, whole entry: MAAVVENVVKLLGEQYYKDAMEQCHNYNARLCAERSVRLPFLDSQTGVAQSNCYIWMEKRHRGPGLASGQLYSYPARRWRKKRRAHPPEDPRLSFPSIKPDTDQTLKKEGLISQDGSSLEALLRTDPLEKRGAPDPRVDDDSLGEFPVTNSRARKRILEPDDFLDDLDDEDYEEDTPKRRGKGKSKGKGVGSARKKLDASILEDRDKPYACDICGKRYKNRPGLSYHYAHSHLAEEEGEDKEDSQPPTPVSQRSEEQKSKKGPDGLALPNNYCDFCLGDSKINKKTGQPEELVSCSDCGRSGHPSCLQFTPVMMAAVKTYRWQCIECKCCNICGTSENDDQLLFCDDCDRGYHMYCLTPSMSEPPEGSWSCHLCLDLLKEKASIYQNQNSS
# GNB2, P62879, UniProt P62879, whole entry: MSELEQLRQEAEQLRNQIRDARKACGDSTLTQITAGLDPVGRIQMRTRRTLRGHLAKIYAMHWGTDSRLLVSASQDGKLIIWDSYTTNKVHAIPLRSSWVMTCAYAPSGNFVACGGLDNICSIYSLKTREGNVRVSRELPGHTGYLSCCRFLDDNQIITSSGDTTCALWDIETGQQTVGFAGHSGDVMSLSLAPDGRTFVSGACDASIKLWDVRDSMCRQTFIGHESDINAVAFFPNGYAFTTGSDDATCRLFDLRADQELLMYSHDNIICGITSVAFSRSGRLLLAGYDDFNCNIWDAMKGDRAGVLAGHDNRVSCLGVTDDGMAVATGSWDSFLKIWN
# NDUFA2, O43678, UniProt O43678, whole entry: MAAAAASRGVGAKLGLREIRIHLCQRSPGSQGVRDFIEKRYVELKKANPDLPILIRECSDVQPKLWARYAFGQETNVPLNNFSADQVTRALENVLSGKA
# RFC4, P35249, UniProt P35249, whole entry: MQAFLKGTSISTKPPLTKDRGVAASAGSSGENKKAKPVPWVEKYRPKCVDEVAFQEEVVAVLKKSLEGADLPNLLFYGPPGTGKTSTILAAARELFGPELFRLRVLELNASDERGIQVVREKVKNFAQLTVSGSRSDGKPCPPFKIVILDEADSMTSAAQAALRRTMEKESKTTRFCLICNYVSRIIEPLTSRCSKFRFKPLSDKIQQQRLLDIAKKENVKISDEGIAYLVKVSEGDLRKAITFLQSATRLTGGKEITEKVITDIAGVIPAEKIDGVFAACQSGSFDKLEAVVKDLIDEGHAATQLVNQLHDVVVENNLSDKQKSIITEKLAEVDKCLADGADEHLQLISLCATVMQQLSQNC
# Some of the results follow. The list holds hits alone, and they repeat only in part.
# B1: CTC-471J1.11 (peptide)
# chain: PLGTSVTIVNAKRFR
# B2: MKKS (peptide)
# chain: SLGLSNLQKSQIQGK
# Experiments:
# Experiment in all cases: PRISMA enrichment of interactor (LFQ) in peptide spot vs all other peptide spots (log2 fold change); higher = stronger / more specific binding of the interactor to the peptide
# ACSL3, O95573 = target: ACSL3, O95573
# Experimental: (§1)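 PRISMA: 15-aa overlapping tiles (offset 8 aa) of 60 microproteins, plus SOS1/GLUT1 control peptides, were spot-synthesized on cellulose membranes in triplicate. Membranes were incubated with benzonase-treated HEK293T lysate, and bound proteins were identified by LC-MS/MS with LFQ. Enrichment is the log2 fold change of each protein in one spot versus all other spots. Only interactors passing the significance cutoff are listed.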
# AP1B1, Q10567 = target: AP1B1, Q10567
# Experimental: as §1
# BTF3L4, Q96K17 = target: BTF3L4, Q96K17
# Experimental: as §1
# DDX42, Q86XP3 = target: DDX42, Q86XP3
# Experimental: as §1
# DNAJC13, O75165 = target: DNAJC13, O75165
# Experimental: as §1
# FAM207A, Q9NSI2 = target: FAM207A, Q9NSI2
# Experimental: as §1
# FRG1, Q14331 = target: FRG1, Q14331
# Experimental: as §1
# GTF2F2, P13984 = target: GTF2F2, P13984
# Experimental: as §1
# HIST1H1E, P10412 = target: HIST1H1E, P10412
# Experimental: as §1
# LIMA1, Q9UHB6 = target: LIMA1, Q9UHB6
# Experimental: as §1
# OXA1L, Q15070 = target: OXA1L, Q15070
# Experimental: as §1
# PDXDC1, Q6P996 = target: PDXDC1, Q6P996
# Experimental: as §1
# PSMA7, O14818 = target: PSMA7, O14818
# Experimental: as §1
# PUS1, Q9Y606 = target: PUS1, Q9Y606
# Experimental: as §1
# PYCR1, P32322 = target: PYCR1, P32322
# Experimental: as §1
# RAB11A, P62491 = target: RAB11A, P62491
# Experimental: as §1
# RAB7A, P51149 = target: RAB7A, P51149
# Experimental: as §1
# RABL3, Q5HYI8 = target: RABL3, Q5HYI8
# Experimental: as §1
# RALY, Q9UKM9 = target: RALY, Q9UKM9
# Experimental: as §1
# RBIS, Q8N0T1 = target: RBIS, Q8N0T1
# Experimental: as §1
# RGPD5, Q99666 = target: RGPD5, Q99666
# Experimental: as §1
# RNF2, Q99496 = target: RNF2, Q99496
# Experimental: as §1
# ANAPC7, Q9UJX3 = target: ANAPC7, Q9UJX3
# Experimental: as §1
# ANKRD17, O75179 = target: ANKRD17, O75179
# Experimental: as §1
# BCKDK, O14874 = target: BCKDK, O14874
# Experimental: as §1
# BTAF1, O14981 = target: BTAF1, O14981
# Experimental: as §1
# CDC73, Q6P1J9 = target: CDC73, Q6P1J9
# Experimental: as §1
# CENPE, Q02224 = target: CENPE, Q02224
# Experimental: as §1
# CHD1, O14646 = target: CHD1, O14646
# Experimental: as §1
# CHPT1, Q8WUD6 = target: CHPT1, Q8WUD6
# Experimental: as §1
# COA7, Q96BR5 = target: COA7, Q96BR5
# Experimental: as §1
# COPG1, Q9Y678 = target: COPG1, Q9Y678
# Experimental: as §1
# DNTTIP2, Q5QJE6 = target: DNTTIP2, Q5QJE6
# Experimental: as §1
# DPF2, Q92785 = target: DPF2, Q92785
# Experimental: as §1
# ECI2, O75521 = target: ECI2, O75521
# Experimental: as §1
# GNAS = target: GNAS
# Experimental: as §1
# GNB2, P62879 = target: GNB2, P62879
# Experimental: as §1
# GRSF1, Q12849 = target: GRSF1, Q12849
# Experimental: as §1
# KHDRBS1, Q07666 = target: KHDRBS1, Q07666
# Experimental: as §1
# NDUFA2, O43678 = target: NDUFA2, O43678
# Experimental: as §1
# NKRF, O15226 = target: NKRF, O15226
# Experimental: as §1
# OAT, P04181 = target: OAT, P04181
# Experimental: as §1
# PAICS, P22234 = target: PAICS, P22234
# Experimental: as §1
# QKI, Q96PU8 = target: QKI, Q96PU8
# Experimental: as §1
# RFC4, P35249 = target: RFC4, P35249
# Experimental: as §1
# RO60, P10155 = target: RO60, P10155
# Experimental: as §1
# TBL2, Q9Y4P3 = target: TBL2, Q9Y4P3
# Experimental: as §1
# TNPO3, Q9Y5L0 = target: TNPO3, Q9Y5L0
# Experimental: as §1
# TUFM, P49411 = target: TUFM, P49411
# Experimental: as §1
# UBIAD1, Q9Y5Z9 = target: UBIAD1, Q9Y5Z9
# Experimental: as §1
binder,measurement,setting,value
B1,PRISMA enrichment of interactor (log2),"ACSL3, O95573",5.65
same,PRISMA enrichment of interactor (log2),"AP1B1, Q10567",5.65
same,PRISMA enrichment of interactor (log2),"BTF3L4, Q96K17",6.71
same,PRISMA enrichment of interactor (log2),"DDX42, Q86XP3",5.59
same,PRISMA enrichment of interactor (log2),"DNAJC13, O75165",4.78
same,PRISMA enrichment of interactor (log2),"FAM207A, Q9NSI2",8.88
same,PRISMA enrichment of interactor (log2),"FRG1, Q14331",4.17
same,PRISMA enrichment of interactor (log2),"GTF2F2, P13984",7.79
same,PRISMA enrichment of interactor (log2),"HIST1H1E, P10412",5.79
same,PRISMA enrichment of interactor (log2),"LIMA1, Q9UHB6",4.22
same,PRISMA enrichment of interactor (log2),"OXA1L, Q15070",5.37
same,PRISMA enrichment of interactor (log2),"PDXDC1, Q6P996",5.67
same,PRISMA enrichment of interactor (log2),"PSMA7, O14818",5.41
same,PRISMA enrichment of interactor (log2),"PUS1, Q9Y606",5.35
same,PRISMA enrichment of interactor (log2),"PYCR1, P32322",4.87
same,PRISMA enrichment of interactor (log2),"RAB11A, P62491",5.04
same,PRISMA enrichment of interactor (log2),"RAB7A, P51149",5.53
same,PRISMA enrichment of interactor (log2),"RABL3, Q5HYI8",4.53
same,PRISMA enrichment of interactor (log2),"RALY, Q9UKM9",6.98
same,PRISMA enrichment of interactor (log2),"RBIS, Q8N0T1",5.97
same,PRISMA enrichment of interactor (log2),"RGPD5, Q99666",4.77
same,PRISMA enrichment of interactor (log2),"RNF2, Q99496",4.81
B2,PRISMA enrichment of interactor (log2),"ACSL3, O95573",5.29
same,PRISMA enrichment of interactor (log2),"ANAPC7, Q9UJX3",7.95
same,PRISMA enrichment of interactor (log2),"ANKRD17, O75179",5.89
same,PRISMA enrichment of interactor (log2),"BCKDK, O14874",7.09
same,PRISMA enrichment of interactor (log2),"BTAF1, O14981",4.54
same,PRISMA enrichment of interactor (log2),"CDC73, Q6P1J9",4.69
same,PRISMA enrichment of interactor (log2),"CENPE, Q02224",5.25
same,PRISMA enrichment of interactor (log2),"CHD1, O14646",4.63
same,PRISMA enrichment of interactor (log2),"CHPT1, Q8WUD6",5.87
same,PRISMA enrichment of interactor (log2),"COA7, Q96BR5",5.68
same,PRISMA enrichment of interactor (log2),"COPG1, Q9Y678",4.97
same,PRISMA enrichment of interactor (log2),"DNTTIP2, Q5QJE6",5.37
same,PRISMA enrichment of interactor (log2),"DPF2, Q92785",6.22
same,PRISMA enrichment of interactor (log2),"ECI2, O75521",4.33
same,PRISMA enrichment of interactor (log2),GNAS,6.43
same,PRISMA enrichment of interactor (log2),"GNB2, P62879",4.46
same,PRISMA enrichment of interactor (log2),"GRSF1, Q12849",4.82
same,PRISMA enrichment of interactor (log2),"KHDRBS1, Q07666",6.21
same,PRISMA enrichment of interactor (log2),"NDUFA2, O43678",3.77
same,PRISMA enrichment of interactor (log2),"NKRF, O15226",4.7
same,PRISMA enrichment of interactor (log2),"OAT, P04181",6.06
same,PRISMA enrichment of interactor (log2),"PAICS, P22234",5.23
same,PRISMA enrichment of interactor (log2),"QKI, Q96PU8",4.49
same,PRISMA enrichment of interactor (log2),"RAB7A, P51149",6.03
same,PRISMA enrichment of interactor (log2),"RFC4, P35249",5.87
same,PRISMA enrichment of interactor (log2),"RO60, P10155",4.48
same,PRISMA enrichment of interactor (log2),"TBL2, Q9Y4P3",5.35
same,PRISMA enrichment of interactor (log2),"TNPO3, Q9Y5L0",8.04
same,PRISMA enrichment of interactor (log2),"TUFM, P49411",5.49
same,PRISMA enrichment of interactor (log2),"UBIAD1, Q9Y5Z9",6.4

# Some of the entries so far, as tab-separated lines:
binder	measurement	setting	value
B1	PRISMA enrichment of interactor (log2)	RALY, Q9UKM9	6.98
same	PRISMA enrichment of interactor (log2)	RBIS, Q8N0T1	5.97
same	PRISMA enrichment of interactor (log2)	RGPD5, Q99666	4.77
